# Data as given in PubChem BioAssay AID504764 (Drosophila RNAi Screening Center, 2011)
# Test: 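Knock-downs that raise or lower a Notch target reporter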 (primary screen)
# Cells: Drosophila Kc167 cells
# Reagents: long dsRNA against Drosophila genes
# Duration: about 5 days (4 days dsRNA, then 24 h after transfection)
# Challenge: transfection of constitutively active membrane-tethered Notch lacking the extracellular domain, read 24 h later
# Measured: 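Light from a Notch-responsive E(spl)m3 luciferase reporter under active Notch, with control-promoter and no-Notch reporter wells to normalise; raw counts from paired wells a and b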
# Reading the numbers: induced reporter light, run 1, well a and induced reporter light, run 1, well b: higher = more light from the Notch target reporter with active Notch; control promoter light, run 1, well a and control promoter light, run 1, well b: higher = more light from the viral control promoter (cell number, transfection, viability); uninduced reporter light, run 1, well a: higher = more light from the Notch target reporter without active Notch
# Active means: 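Wells with low control signal or poorly matching duplicates excluded; duplicates averaged; per source plate, z beyond ±2 for induced/control log2 ratio or beyond ±1.8 for induced/uninduced marks a hit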
# Calls: active = modifier hit (raised or lowered Notch signal); inactive = not a hit
# In all, the deposit lists about 22,000 reagents; this is an unselected part of those that have a named target and a result. Of all reagents, 403 (1.9%) are marked active. 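Unnormalised raw counts per well; ratio z-scores behind the hit calls and whether each hit raises or lowers signal are not deposited.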 The numbers tell different reagents against one gene apart. Reagent sequences are not shown. Not stated in the record: the amount of reagent.
gene knocked down,reagent no.,"induced reporter light, run 1, well a","induced reporter light, run 1, well b","control promoter light, run 1, well a","control promoter light, run 1, well b","uninduced reporter light, run 1, well a",Call
Pi3K59F (Phosphatidylinositol 3-kinase 59F),1,1.70e5,2.17e5,1.85e5,1.86e5,13975,inactive
rdhB (retinol dehydrogenase B),1,1.68e5,2.25e5,1.91e5,2.72e5,18275,inactive
"Alg10 (ALG10 alpha-1,2-glucosyltransferase)",1,1.57e5,1.41e5,1.56e5,1.43e5,8445,inactive
CG9436,1,1.01e5,87335,68865,73515,5670,inactive
Kcmf1 (Potassium channel modulatory factor 1),1,85340,78445,56545,45325,6080,inactive
Baldspot,1,1.32e5,1.46e5,1.84e5,1.86e5,8840,inactive
CG9705,1,90745,1.16e5,65450,90120,10985,inactive
CG13324,1,96510,1.19e5,1.18e5,92555,10380,inactive
CG14491,1,86005,79635,1.12e5,1.17e5,6938,inactive
ND5 (retired record),1,1.24e5,1.60e5,1.48e5,1.79e5,11335,inactive
CG15047,1,1.04e5,91760,1.11e5,1.16e5,12195,inactive
yata,1,1.15e5,1.04e5,1.60e5,1.59e5,9325,inactive
CtsK1 (Cathepsin K1),1,2.05e5,2.22e5,3.29e5,2.64e5,7690,inactive
vls (valois),1,1.68e5,1.85e5,1.42e5,1.44e5,11305,inactive
CG32187,1,2.28e5,2.26e5,2.68e5,2.27e5,9835,inactive
CG2906,1,2.42e5,2.31e5,2.76e5,2.96e5,20110,inactive
CG34427,1,2.22e5,1.99e5,2.79e5,2.08e5,15140,inactive
eIF2Balpha (eukaryotic translation initiation factor 2B subunit alpha),1,1.10e5,1.38e5,1.91e5,1.99e5,8788,inactive
mRpL12 (mitochondrial ribosomal protein L12),1,1.06e5,97920,61205,28070,8542,inactive
Hmt4-20 (Histone methyltransferase 4-20),1,39555,52295,26125,31250,10670,inactive
Pef (Peflin),1,85730,70160,71540,67135,6588,inactive
CG3687,1,48530,39980,28870,40140,3080,inactive
"Smyd4-4 (SET and MYND domain containing, class 4, member 4)",1,1.55e5,1.09e5,1.05e5,92340,10100,inactive
WASp,1,1.24e5,1.25e5,1.75e5,1.71e5,11355,inactive
CG33003,1,,,,,,inactive
NijC (Ninjurin C),1,60295,76735,76310,52895,4185,inactive
Trc8 (TRC8 ring finger protein),1,1.95e5,2.09e5,2.19e5,2.59e5,13388,inactive
Gr63a (Gustatory receptor 63a),1,86625,1.46e5,1.89e5,1.42e5,7670,inactive
CG8788,1,1.88e5,1.56e5,2.31e5,1.78e5,15228,inactive
Ilp3 (Insulin-like peptide 3),1,1.83e5,1.82e5,3.02e5,2.52e5,11555,inactive
dbe (dribble),1,1.56e5,1.63e5,2.32e5,2.14e5,15430,inactive
gammaCOP (Coat Protein (coatomer) gamma),1,29755,27160,47255,42050,1730,inactive
CG33061,1,1.38e5,1.64e5,2.25e5,1.48e5,7780,inactive
CG33061,2,,,,,,inactive

Part of the list above, reduced to “uninduced reporter light, run 1, well a”.
eIF2Balpha (eukaryotic translation initiation factor 2B subunit alpha): 8788
mRpL12 (mitochondrial ribosomal protein L12): 8542
Hmt4-20 (Histone methyltransferase 4-20): 10670
Pef (Peflin): 6588
